## Library screen at single concentrations

Mtb cholesterol medium: 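Growth of Mycobacterium tuberculosis over 4 days (cholesterol / DPPC medium with tyloxapol); the read-out is not stated. Tested at 50 µM. Higher reads as more growth inhibition (inferred: compounds with an IC50 in retests scored well above the rest). Size under these conditions: about 69,000 compounds, about 370 of them at 50% or above in at least one test.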
Mtb glucose medium: 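Whole-cell growth test on Mycobacterium tuberculosis, read after 3 days in glucose-containing 7H9 medium; the read-out is not stated. Tested at 50 µM. Direction is inferred from retests: higher values go with more growth inhibition. Size under these conditions: about 69,000 compounds, about 760 of them at 50% or above in at least one test.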

Values are the deposited “Percent Effect”, in %.
The record does not define 0% and 100%; most values in the screen are far below 50% and negative numbers occur (in some assays of this library far below -100).
Compounds were drawn at random from those tested, without regard to their results.
Two or more numbers in one place are separate tests of the same structure; such repeats can differ widely.

Compound	Mtb cholesterol medium	Mtb glucose medium
CN(CC(O)CO)C(=O)c1coc(COc2cccc(F)c2)n1 (configuration not stated)	1.723% and -7.611%	-15.48% and -2.709%
O=C(O)C(F)(F)F.c1csc(CN2CCn3c(Cn4cncn4)cnc3C2)n1	-15.61%	8.512%
COCCC(=O)N1CCC2(CN(Cc3ccc(OC)c(F)c3)C2)C1	-12.73%	21.14%
CN(CC(=O)N1CCCCC1c1nccs1)C1CC1 (configuration not stated)	-40.69%	-60.56%
Cc1cc(C)c(CNC(=O)NCCOc2ccc3c(c2)CCC3)c(=O)[nH]1	-9.605%	-4.833%
CC1CS(=O)(=O)CCN1Cc1ccccc1OCC(F)(F)F (configuration not stated)	-18.77%	-7.499%
COc1ccccc1CN(Cc1cccs1)S(=O)(=O)N(C)C(C)C	-3.168%	17.65% and 11.02%
CN(CC(=O)NC(Cc1ccsc1)c1cccnc1)Cc1ccccn1.Cl (configuration not stated)	20.9% and -7.367%	-1.761%
Cc1cc2nc(C(C)C)cc(NC(C)c3nncn3C3CCCC3)n2n1 (configuration not stated)	-3.156%	1.619% and -16.59%
CC(C)c1nn(C)c(N2CCOCC2)c1CN[C@H](C)CO	-19.76%	19.13%
COCCN1CCN(c2ccc(CN(C)C)cn2)CC1	-21.46%	-3.879%
COc1ccc(C2CCCN2Cc2nnnn2C2CC2)cc1OC (configuration not stated)	-4.934%	3.447%
[H][C@@]12CCN(C(=O)N(C)C)C[C@@]1([H])O[C@@H](c1nc(C)no1)C2	-1.661%	0.3842%
Cc1nc(-c2ccc(F)cc2)cc(C2CCNCC2)n1	5.337%	27.46%
CCc1ccc(S(=O)(=O)N2Cc3c(CN(C)C)nn(C)c3C2)cc1.O=C(O)C(F)(F)F	-25.32%	-17.85%
CCOc1cc(C(=O)O)cc(-c2ccccc2)c1OC	-14.79%	-15.67% and -1.013%
CC(=O)N(C)c1nc(CN2CCCC2Cn2nc(C)cc2C)cs1 (configuration not stated)	-8.714%	30.48%
CCC(=O)Nc1nnc(CCOc2ccccc2OC)s1	-0.1096%	26.12%
CCc1nnc(CN2CCOC(Cn3cccn3)C2)o1 (configuration not stated)	-5.474%	3.693%
N#Cc1ccc(CN2CCN(Cc3ccncc3Cl)CC2=O)cc1	-12.08%	4.465%
CCOc1ccc2c(c1)CN(Cc1nc3c(cnn3C)c(=O)[nH]1)CC2	2.624%	1.258% and -49.08%
CC(C)N(CC(N)=O)CC(=O)N(C1=CCCCC1)C1CC1	-22.77%	-3.319%
CC(C)(C)CN1CCOC[C@H]1c1nc(-c2cccc(F)c2)c[nH]1	12.28%	19.22% and 7.85%
Cc1ccc2c(c1)N(C(=O)c1nccnc1N)CC(C)O2 (configuration not stated)	-5.158%	19%
Cc1cc(C(=O)N2CCn3c(COCC4CCCC4)cnc3C2C)on1 (configuration not stated)	-8.92%	-25.44%
Cc1nc[nH]c1CN1CCOC(CCNC(=O)c2ccsc2)C1 (configuration not stated)	7.356%	18.39%
[H][C@@]12COC[C@@H](CC(=O)N3CCCC3)[C@]1([H])CN(Cc1ccncc1)C2	-10.63%	5.722%
[H][C@@]12CN(C(=O)c3cccc(C)n3)C[C@]1([H])OCCN2CCN1CCCC1	-14.59% and -2.45%	-34.55%
CC(O)CN1CCC(CNCc2ccc(S(C)(=O)=O)cc2)CC1 (configuration not stated)	2.821%	-6.024% and 10.82%
CC(C)NC(=O)C1CCc2nnc(CNC(=O)c3cccnc3)n21 (configuration not stated)	-6.924%	5.656%
Cc1cc(CN2CCCC2Cn2cncn2)no1 (configuration not stated)	-3.393%	-6.094%
COc1ccc2c(C)c(C(=O)NCC3CN(S(C)(=O)=O)CCO3)oc2c1 (configuration not stated)	-8.068% and 1.184%	-7.012%
Cc1cccc(Nc2noc3c2CN(C(=O)c2ccn(C)n2)CC3)c1C	-6.338% and -12.63%	-9.662%
CNc1nc(CNC(=O)Nc2ccc([S+](C)[O-])c(F)c2)cs1 (configuration not stated)	9.322%	7.945%
O=C(O)C(F)(F)F.[H][C@@]12CCN(c3ccc(C)nn3)[C@@]1([H])CCN2C(=O)Cc1cccs1	-7.999%	-11.31%
CCN1CCn2nc(CCC(=O)N3CCCC3)cc2C1	-27.67%	-18.1%
Nc1nc2c(c(N3CCSCC3)n1)CCN(Cc1ccccn1)CC2	13.02%	18.92%
CN(C)c1cc(CC(NC(=O)C2CC2)c2ccccc2)nc(C2CC2)n1 (configuration not stated)	-16.52% and -5.246%	-15.43%
CC1COCCN1C(=O)c1cnccn1 (configuration not stated)	-18.44%	-16.52%
Cn1cnnc1-c1ccnc(NCc2ccc3c(c2)OCCO3)c1	5.824%	-6.463%
O=C(CCCc1nc2ccccc2[nH]1)N1CCCC1c1ccccn1 (configuration not stated)	-5.952% and -1.982%	-11.71%
CCc1ccc2nc(C)cc(C(=O)NC3CCC(=O)N(C)C3)c2c1 (configuration not stated)	-13.34%	-0.8016% and -22.05%
CN(C)C(C(=O)NCCn1cccc1)c1cccc(F)c1 (configuration not stated)	-1.289% and -10.15%	-5.726%
O=C(c1ccc(F)cc1F)N1C[C@@H](O)[C@H](N2CCOCC2)C1	-9.225%	-3.422%
CC(C)c1noc(C[S+]([O-])CC(=O)Nc2cc(F)ccc2F)n1 (configuration not stated)	-17.57%	-10.42%
N#CC1C(=O)Nc2c(cnn2C2CCCC2)C12CCCCC2 (configuration not stated)	-6.458%	4.338%
COc1cc(F)c(C(C)NC(=O)c2cccnc2C)cc1OC (configuration not stated)	-3.277%	30.53%
Cc1cc(C)nc(NCCCC(=O)NCCn2ccc3ccccc32)n1	6.903%	28.55%
O=C(NC1CCN(c2cc(-n3ccnc3)ncn2)CC1)c1ccncc1	12.93%	37.05%
N#CC1(C(=O)N2CCN(Cc3ccon3)CC2)CCC1	-0.1403%	-7.902%
CN(C)CCNc1cc(-c2ncccn2)c2cc[nH]c2n1	-15.39% and -7.172%	-35.59%
O=C(NCc1nnc2n1CCCC2)N1CCc2sccc2C1	-28.33%	-27.44%
O=C(N[C@@H]1c2ccccc2C[C@@H]1O)C1CCN(Cc2ccco2)CC1	-18.65%	-9.04%
CC(C)Nc1nc(O)cc(C2CC(=O)N(Cc3ccccn3)C2)n1.Cl (configuration not stated)	-12.95%	-16.2%
Cc1ccc2c(c1)OC(C)CN2C(=O)c1c[nH]c(C)cc1=O (configuration not stated)	20.72% and 3.896%	17.83%
COCCN1CCCC(c2nccnc2-c2cccc(Cl)c2)C1 (configuration not stated)	-11.89% and -11.9%	3.057%
CC(C)[C@H]1COC(=O)N1Cc1nncn1C(C)C	1.164%	-22.92%
COCCn1cc2c(n1)C(CNCc1ccsc1)OCC2.O=C(O)C(F)(F)F (configuration not stated)	19.17%	36.77%
CCn1cc(CN2CCCC(c3[nH]ncc3-c3ccc(F)cc3)C2)cn1 (configuration not stated)	20.42%	13.81%
Cc1nc(CN2CCCC(NCc3nc4ccccc4s3)C2)no1 (configuration not stated)	0.6291%	13.5%
CN(CC1(CO)CCCC1)c1nc2c(c(=O)[nH]1)Cc1ccccc1OC2	-12.1%	-19.66% and 0.3843%
O=C(Nc1nc2c(s1)CN(S(=O)(=O)C1CC1)CC2)C1CC1	-39.28%	-22.94%
CC(c1ccccn1)N(C)C(=O)NCCn1c(=O)oc2ccccc21 (configuration not stated)	60.36%	23.16%

Repeated from the top, 4 entries:

| Compound | Mtb cholesterol medium | Mtb glucose medium |
|---|---|---|
| `CN(CC(O)CO)C(=O)c1coc(COc2cccc(F)c2)n1` (configuration not stated) | 1.723% and -7.611% | -15.48% and -2.709% |
| `O=C(O)C(F)(F)F.c1csc(CN2CCn3c(Cn4cncn4)cnc3C2)n1` | -15.61% | 8.512% |
| `COCCC(=O)N1CCC2(CN(Cc3ccc(OC)c(F)c3)C2)C1` | -12.73% | 21.14% |
| `CN(CC(=O)N1CCCCC1c1nccs1)C1CC1` (configuration not stated) | -40.69% | -60.56% |

From ChEMBL document CHEMBL3988442, “University of Dundee, Small-Polar-MMV Screening Library” (2021).